Where “and” joins values, the source holds several entries; their conditions need not be identical. Identical values can stand only once.
System: C. parvum
Type: cell-based, Cryptosporidium parvum
Conditions: C. parvum EC50 curve

Compound | hill slope
Nc1nc2c(c(C(F)(F)F)n1)C(=O)N(CC1CCCC(C(F)(F)F)C1)C2 (centres unmarked) [DDD489] | 2.716 and 2.7
O=C(NCC1(O)CCCCC1)c1cc(=O)c2cc(O)ccc2o1 [DDD508] | 2.076 and 2.1

Reference: PMC7617456, “Cryptosporidium lysyl-tRNA synthetase inhibitors define the interplay between solubility and permeability required to achieve efficacy” (Science translational medicine, 2024)
